Assay results published in PubChem BioAssay AID248 (DTP/NCI, 2004).
The list shows only some results of the screen, not a fair sample: it gathers tests that were run many times, whatever their T/C, doses with no T/C, and many T/C values between a quarter and a half above the control. Further doses and runs are listed elsewhere. T/C gives the treated animals as a percentage of the vehicle group. Some entries give survivors of the animals treated and no T/C: the source files T/C as zero there, which appears to mark a toxic dose or a test without result, not a measured value. Some survivor counts are full or nearly so, which does not show that the dose was tolerated: the source hardly ever lists a survival T/C far under the control, and the zero likely stands for such cases as well. Counts of survivors are from the toxicity check (mostly the fifth day) where no day follows; animals may have died later. Schedule codes are those of the source, read here as Q, the interval in days (D) or hours (H), X, the number of doses. Some schedules carry Z or #; the key to these is not given. Some structures stand for samples that the source files as different forms (salt, stereo form or complex); doses refer to the form tested. Some entries were tested several times; their values stand side by side, smallest first. For survival time, the PubChem record calls one and a half times the control and up active, and a quarter to a half above the control has no call in these data; cut-offs in other NCI protocols can differ. Some T/C values are followed by the survivors on the day toxicity was checked, most often the fifth; without a count, all were alive then.

Tested on: L1210 leukemia ip in BDF1 mice, survival T/C
Assay: NCI In Vivo Anticancer Drug Screen. Data for tumor model L1210 Leukemia (intraperitoneal) in B6D2F1 (BDF1) mice
Conditions: T/C endpoint: mean survival time, higher T/C = longer survival
[1] = dose: 100.0 mg/kg/injection, schedule: Q01DX001 (ip), vehicle: saline
[2] = dose: 200.0 mg/kg/injection, schedule: Q01DX001 (ip), vehicle: saline
[3] = dose: 400.0 mg/kg/injection, schedule: Q04DX003 (ip), vehicle: saline with Tween-80
[4] = dose: 600.0 mg/kg/injection, schedule: Q01DX015 (ip), vehicle: water

With `CC1CC(O)C(=O)C(O[C@@H]2C[C@@H]3CC[C@@H]4[C@H](CC[C@]5(C)C(C6=CC(=O)OC6)CC[C@]45O)[C@@]3(C=O)C[C@H]2O)O1` (some centres undefined) the survivor count (dose: 100.0 mg/kg/injection, schedule: Q04DX003 (sc), vehicle: steroid suspending solution) was 0 of 6, the survivor count (dose: 200.0 mg/kg/injection, schedule: Q04DX003 (sc), vehicle: steroid suspending solution) was 0 of 6 and the survivor count (dose: 400.0 mg/kg/injection, schedule: Q04DX003 (sc), vehicle: steroid suspending solution) was 0 of 6.

With `CC1(C)N=C(N)N=C(N)N1c1ccc(OCC(=O)Nc2ccc(S(=O)(=O)F)cc2)cc1` the T/C (dose: 100.0 mg/kg/injection, schedule: Q01DX009 (ip), vehicle: saline) was 129 % of control and the survivor count (dose: 500.0 mg/kg/injection, schedule: Q01DX009 (ip), vehicle: saline) was 0 of 6.

In the case of `NC1=NC(CNC(=O)c2cccc([N+](=O)[O-])c2)N(c2cccc(Cl)c2)C(N)=N1` (centres undefined), the survivor count (dose: 100.0 mg/kg/injection, schedule: Q01DX Z (ip), vehicle: methylcellulose (MC)) is reported as 3 of 6, the survivor count (dose: 200.0 mg/kg/injection, schedule: Q01DX Z (ip), vehicle: methylcellulose (MC)) is reported as 2 of 6 and the survivor count (dose: 400.0 mg/kg/injection, schedule: Q01DX Z (ip), vehicle: methylcellulose (MC)) is reported as 6 of 6.

With `CC1(C)N=C(N)N=C(N)N1c1ccc(OCCCc2ccccc2)c([N+](=O)[O-])c1` the survivor count (dose: 400.0 mg/kg/injection, schedule: Q01DX009 (ip), vehicle: Klucel (hydroxypropylcellulose) (HPC)) was 0 of 6.

In the case of `C1CC2CC1C1CNCC21` (centres undefined), the survivor count (dose: 200.0 mg/kg/injection, schedule: Q04DX002 (ip), vehicle: Klucel (hydroxypropylcellulose) (HPC)) is reported as 1 of 3.

With `CC(=O)Nc1nncs1` the T/C (dose: 124.0 mg/kg/injection, schedule: Q01DX015 (ip), vehicle: carboxymethylcellulose (CMC)) was 131 % of control [4 of 6 alive].

For `Cc1ccc(NC(=S)NNC(=S)NNc2ccccc2)cc1`, the survivor count (dose: 400.0 mg/kg/injection, schedule: Q04DX002 (ip), vehicle: Klucel (hydroxypropylcellulose) (HPC)) was 3 of 3.

With `CCC(C)C(CN)(CCCN1CCCCC1)c1cccc2ccccc12` (centres undefined) the survivor count (dose: 400.0 mg/kg/injection, schedule: Q04DX003 (ip), vehicle: saline) was 4 of 6.

For `OCCCCCCCC[n+]1ccccc1`, the survivor count (dose: 50.0 mg/kg/injection, schedule: Q01DX001 (ip), vehicle: saline) was 0 of 6, the survivor count [1] was 0 of 6 and the survivor count [2] was 0 of 6.

`CCC(/C=C/C(C)C1CCC2C3CC=C4CC(O)CCC4(C)C3CCC12C)C(C)C` (centres undefined) (tested in a mixture with another compound) was tested, and the survivor count (dose: 100.0 mg/kg/injection, schedule: Q01DX001 (ip), vehicle: water) was 6 of 6, the survivor count (dose: 200.0 mg/kg/injection, schedule: Q04DX003 (ip), vehicle: saline with Tween-80) was 6 of 6 and the survivor count (dose: 400.0 mg/kg/injection, schedule: Q01DX001 (ip), vehicle: water) was 0 of 6 and 3 of 6. The survivor count [3] was 2 of 6.

With `O=C(NO)c1ccc([N+](=O)[O-])cc1` the T/C [4] was 137 % of control [5 of 6 alive], the survivor count [4] was 2 of 6 and 3 of 6 and the survivor count (dose: 800.0 mg/kg/injection, schedule: Q01DX001 (ip), vehicle: water) was 0 of 6. The survivor count (dose: 800.0 mg/kg/injection, schedule: Q01DX009 (ip), vehicle: Klucel (hydroxypropylcellulose) (HPC)) was 0 of 8 and the survivor count (dose: 800.0 mg/kg/injection, schedule: Q01DX015 (ip), vehicle: water) was 0 of 6.

With `Brc1ccc2[nH]cc(/C=N/Nc3nnc(N/N=C/c4c[nH]c5ccc(Br)cc45)c4ccccc34)c2c1` the survivor count [1] was 2 of 4, the survivor count [2] was 0 of 4 and the survivor count (dose: 400.0 mg/kg/injection, schedule: Q01DX001 (ip), vehicle: saline) was 0 of 4.

In the case of `CC1(O)C=Cc2ccccc21` (centres undefined), the survivor count [3] is reported as 3 of 3.

`Cc1c(Cl)cc(Cl)c2ncccc12` was tested, and the survivor count (dose: 100.0 mg/kg/injection, schedule: Q04DX003 (ip), vehicle: Klucel (hydroxypropylcellulose) (HPC)) was 5 of 6, the survivor count (dose: 200.0 mg/kg/injection, schedule: Q04DX003 (ip), vehicle: Klucel (hydroxypropylcellulose) (HPC)) was 0 of 6 and the survivor count (dose: 400.0 mg/kg/injection, schedule: Q04DX003 (ip), vehicle: Klucel (hydroxypropylcellulose) (HPC)) was 0 of 6.

`O=C(Nc1ccccc1)Sc1ccccc1` was tested, and the survivor count (dose: 125.0 mg/kg/injection, schedule: Q01DX001 (ip), vehicle: Klucel (hydroxypropylcellulose) (HPC)) was 6 of 6 and the survivor count (dose: 250.0 mg/kg/injection, schedule: Q01DX001 (ip), vehicle: Klucel (hydroxypropylcellulose) (HPC)) was 1 of 6.
